Test results reported in the supplement of paper PMC8256030.
Where “and” joins values, the source holds several entries; their conditions need not be identical. Identical values can stand only once. The list shows a part of the results. Single values are uncertain here, since repeats match poorly.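 HEK293T cells were given each compound shortly before transfection with a reporter in which red mCherry is followed by the SARS-CoV-2 frameshift element and then GFP in the −1 frame, so GFP appears only after frameshifting.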

The molecules below were run on HEK293T (assay: percent viability (nuclei count) relative to control; higher = more viable cells). Settings: 10 µM; 24 h.
Molecule `Cc1ncc(C[n+]2csc(CCO)c2C)c(N)n1` has a percent viability of 343%.
In the case of `C[N+](C)(C)CC(=O)O`, the percent viability is reported as 414%.
With `Cc1cn([C@H]2O[C@@H](CO)[C@H](O)[C@H]2F)c(=O)[nH]c1=O` [clevudine] the percent viability was 432%.
In the case of `CCN(CC)CCOC1(c2ccc(Cl)cc2)CCCCC1` [clofenciclan], the percent viability is reported as 182%.
For `CC(=O)SCC(Cc1ccccc1)C(=O)NCC(=O)OCc1ccccc1` (configuration not stated) [racecadotril], the percent viability was 217% and 198%.
For `CC(O)(P(=O)(O)O)P(=O)(O)O` [Etidronate], the percent viability was 55.8%.
`CC[C@H](C)[C@H](N)C1=N[C@H](C(=O)N[C@@H](CC(C)C)C(=O)N[C@H](CCC(=O)O)C(=O)N[C@H](C(=O)N[C@H]2CCCCNC(=O)[C@H](CC(N)=O)NC(=O)[C@@H](CC(=O)O)NC(=O)[C@H](Cc3cnc[nH]3)NC(=O)[C@@H](Cc3ccccc3)NC(=O)[C@H]([C@@H](C)CC)NC(=O)[C@@H](CCCN)NC2=O)[C@@H](C)CC)CS1` [bacitracin] gave a percent viability of 144%.
`Cc1onc(NS(=O)(=O)c2ccc(N)cc2)c1C` [sulfatroxazole] gave a percent viability of 370%.
Work on `CCN(CC)CCOCCOC(=O)C1(c2ccccc2)CCCC1` [pentoxyverine] yielded a percent viability of 290%.
With `CSCC[C@H](NC(=O)[C@H](Cc1c[nH]c2ccccc12)NC(=O)CCNC(=O)OC(C)(C)C)C(=O)N[C@@H](CC(=O)O)C(=O)N[C@@H](Cc1ccccc1)C(N)=O` the percent viability was 324%.
`CC(=O)Nc1ccc(OCC(O)CNC(C)C)cc1` (configuration not stated) [practolol] was tested, and the percent viability was 152%.
`COc1ccc(C2C(=O)c3ccccc3C2=O)cc1` [anisindione] was tested, and the percent viability was 200%.
